Literature values as cited in patent US20240261259A1 (priority 2021, published 2024).
At least one compound was matched to its structure with a doubt left.

Columns and labels:
[1] = system: FLT3 mutant-negative cases (AML); settings: earlier phase 2 trials; cited from earlier work
[2] = system: FLT3 mutant-positive patients (AML); settings: Phase 3 clinical trials; cited from earlier work

CO[C@@H]1[C@H](N(C)C(=O)c2ccccc2)C[C@H]2O[C@]1(C)n1c3ccccc3c3c4c(c5c6ccccc6n2c5c31)C(=O)NC4 [midostaurin, N-[(9S,I0R,I IR,I3R)-2,3,I0,I I,I2,I3-hexahydro-I0-methoxy-9-methyl-I-oxo-9,I3-epoxy-IH, 9H-diindolo[1,2,3-gh: 3′,2′,I′-Im]pyrrolo[3,4-j][I, 7]benzodiazonin-I I-yl]-N-methylbenzamide]
FLT3 mutant-negative cases who benefited from midostaurin therapies [1]: about 40%
FLT3 mutant-positive patients who responded to midostaurin [2]: about 60%
